Assay results reported in US8580517.
No constants are given. Whether binding was seen depends on the method and setting. Some entries that bind do so weakly or less than the wild type.

By UniProt entry, the sequences of proteins in these tests, tags left out. Where a name states a change or a piece, a line headed by the entry shows the natural chain unless it says otherwise.
UniProt P62871: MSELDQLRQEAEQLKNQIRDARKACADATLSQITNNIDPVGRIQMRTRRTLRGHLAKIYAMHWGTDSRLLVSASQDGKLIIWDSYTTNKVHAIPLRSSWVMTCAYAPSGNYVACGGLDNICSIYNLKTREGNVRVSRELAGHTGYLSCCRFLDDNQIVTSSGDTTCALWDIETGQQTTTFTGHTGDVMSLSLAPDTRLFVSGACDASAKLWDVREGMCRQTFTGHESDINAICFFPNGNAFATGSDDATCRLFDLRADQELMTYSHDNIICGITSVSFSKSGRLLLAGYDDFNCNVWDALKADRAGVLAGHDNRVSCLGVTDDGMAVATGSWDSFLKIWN
UniProt P63217: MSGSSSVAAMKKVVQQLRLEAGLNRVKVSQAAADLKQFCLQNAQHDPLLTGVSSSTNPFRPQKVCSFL
UniProt P59215: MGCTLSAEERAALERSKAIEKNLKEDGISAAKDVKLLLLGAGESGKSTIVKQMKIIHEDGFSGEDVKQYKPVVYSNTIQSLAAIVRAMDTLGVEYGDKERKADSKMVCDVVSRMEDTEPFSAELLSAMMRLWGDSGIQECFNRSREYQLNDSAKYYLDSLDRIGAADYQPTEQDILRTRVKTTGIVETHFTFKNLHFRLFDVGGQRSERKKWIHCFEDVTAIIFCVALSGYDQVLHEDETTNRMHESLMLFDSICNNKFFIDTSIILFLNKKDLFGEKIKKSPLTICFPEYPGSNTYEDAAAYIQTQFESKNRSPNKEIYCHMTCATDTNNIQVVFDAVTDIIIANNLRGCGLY

Experiments:
[1] = target: T1, β1-YFP γ5 complex (YFP fused to the N terminus of bovine β1, with bovine γ5) (bovine) (UniProt P62871+P63217); test: FRET imaging of live cells
[2] = target: T1, β1-YFP γ5 complex (YFP fused to the N terminus of bovine β1, with bovine γ5) (bovine); test: fluorescence microscopy, co-localisation at the plasma membrane
[3] = target: T1, β1-YFP γ5 complex (YFP fused to the N terminus of bovine β1, with bovine γ5) (bovine); test: acceptor photobleaching FRET in live M2-CHO cells
[4] = target: bovine γ5 subunit (bovine) (UniProt P63217); test: fluorescence microscopy, localisation at the plasma membrane

Substance | binding [1] | binding [2] | binding [3] | binding [4]
αo-CFP (rat G protein αo subunit with CFP inserted after Gly92) (from UniProt P59215 1-92; P59215 93-354) | binds | binds | binds | 
β1-YFP (YFP fused to the N terminus of the bovine β1 subunit) (from UniProt P62871 1-340) |  |  |  | binds
